Experimental data reported in patent US9206245B2, “Immunogenic peptides and methods of use for treating and preventing cancer” (The United States of America, as represented by the …, priority 2005, dated 2015).
Not every detail of the peptide structures is certain; ends, links or a residue may be inferred. Where no end group is shown, it is not given here.

Sequences of proteins named here, by UniProt entry; tags and fusion partners are left off. Residues count along the entry.
UniProt P01889, 25-362: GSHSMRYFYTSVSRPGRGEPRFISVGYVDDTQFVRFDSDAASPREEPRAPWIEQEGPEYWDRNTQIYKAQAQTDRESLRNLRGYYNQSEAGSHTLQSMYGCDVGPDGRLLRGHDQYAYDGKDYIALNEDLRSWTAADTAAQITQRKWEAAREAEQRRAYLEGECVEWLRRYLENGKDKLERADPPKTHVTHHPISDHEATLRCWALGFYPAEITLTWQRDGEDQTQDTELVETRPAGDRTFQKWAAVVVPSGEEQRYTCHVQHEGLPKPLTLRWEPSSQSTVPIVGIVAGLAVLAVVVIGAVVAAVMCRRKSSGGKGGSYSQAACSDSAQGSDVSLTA

Tests used:
[1] = system: rhabdomyosarcoma tumor cell expressing HLA-B7 (Rh5); assay: 4 h 51Cr release assay, RS10-specific CTL line against rhabdomyosarcoma tumor cell lines; assay type: cell-based, human; conditions: CTL raised against RS10; FIG. 3
C1R-B7 target cells = assay: 4 h 51Cr release assay, RS10-specific human CTL line against peptide pulsed C1R-B7 target cells; assay type: cell-based; conditions: peptide pulsed at 10 μM, various E:T ratios, versus control peptide
Protocol: In particular, specific cytotoxic activities are determined in a standard 4 h ^51Cr release assay at various effector:target (E:T) ratios. Briefly, graded doses of viable effector cells are plated in triplicate in 96-well U-bottom culture plates (Corning Glass, Corning, N.Y.) and co-cultured for 4 h with sodium chromate-labeled (100 μCi; NEN, Boston, Mass.) peptide pulsed (10 μM) C1R-B7 target cells. In some experiments, the Rh5, RD and CTR tumor cell lines are used as a target. Supernatants are collected, radioactivity measured, and specific lysis is calculated according to the equation: percentage of specific cytotoxicity=(experimental cpm−spontaneous cpm)/(maximum cpm−spontaneous cpm)×100. Maximum ^51Cr release is determined from supernatants of lysed target cells incubated with Triton X-100 (5% v/v). Spontaneous release is determined from target cells incubated without added effector cells.

HLA-B7 = molecular target: T1, HLA-B7 (Homo sapiens, UniProt P01889); assay: T2-B7 binding assay: stabilization of HLA-B7 molecules on the surface of T2-B7 cells, flow cytometry; conditions: data not shown
T1 construct: transfected with the HLA-B7 gene; expressed in transfected cells; host or cells: T2 (TAP1/TAP2-deficient hybrid B and T lymphoblastoid cell line) transfected with the HLA-B7 gene (T2.B7, gift of Peter Cresswell)
Protocol: A chromosomal translocation-generated fusion protein breakpoint peptide, RS10 (SPQNSIRHNL), is selected on the basis of predicted potential binding to HLA-B7 (Rammensee et al., Immunogenetics 41: 178-228 (1995)). Peptide binding to HLA-B7 is assessed by using stabilization of HLA-B7 molecules on the surface of T2-B7 cells that lack the TAP transporter and therefore express only short-lived empty HLA-B7 molecules unless a peptide is present that can bind and stabilize them. These assays are described in (Stuber et al., Eur. J. Immunol., 22, 2697-2703 (1992), Nijman et al., Eur. J. Immunol., 23, 1215-1219 (1993), Zeh et al., Hum. Immunol., 39, 79-86 (1994), and Smith et al., Internat. Immunol., 9, 1085-1093 (1997)). Cells of the TAP1/TAP2-deficient T2 cell line (Salter et al., Immunogenetics, 21, 235-246 (1985), and Spies et al., Nature, 351, 323-324 (1991)) transfected with the HLA-B7 gene are suspended in culture medium containing heat inactivated FCS (2.5% v/v) and added to 96-well round-bottomed plates at 2×10^5 cells/well. Human β2-microglobulin (Sigma Chemical Co.) is also added at 20 μg/well. […]
Conventional mAb staining is conducted in PBS containing 0.01% sodium azide on ice. […] All reagents are used at optimal concentration as determined experimentally. […] Data are collected on 5000-10,000 viable cell events and analyzed with CellQuest software.

## SPQNSIRHNL [RS10, SPQNSIRHNL]
[1]
  CTL lysis of Rh5 cells compared with RD and CTR control lines not expressing HLA-B7: Clear specific lysis
C1R-B7 target cells
  CTL lysis of peptide pulsed C1R-B7 target cells: lysis is clearly specific
HLA-B7
  binding to HLA-B7: found to bind HLA-B7
